Assay results: patent US20110223168A1 (published 2011)
Results are given in words; binding and its absence hold for the method and conditions named. Some entries that bind do so weakly or less than the wild type.

Amino acid sequences for entries named in this document (tags omitted). Residues count along the entry.
UniProt P01375, residues 77-233: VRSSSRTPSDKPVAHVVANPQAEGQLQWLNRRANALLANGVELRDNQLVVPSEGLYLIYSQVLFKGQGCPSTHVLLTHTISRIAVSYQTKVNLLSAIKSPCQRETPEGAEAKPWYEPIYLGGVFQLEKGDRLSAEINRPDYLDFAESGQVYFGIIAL

Molecular target: human TNFα (human, UniProt P01375 77-233)
Assay: antigen ELISA
Description: Binding activity of dimeric recombinant proteins was compared to monomer by Protein A/L ELISA or by antigen ELISA. Briefly, a 96 well plate is coated with antigen or Protein A/L overnight at 4° C. The plate washed with 0.05% Tween-PBS, blocked for 2 hrs with 2% Tween-PBS. The sample is added to the plate incubated for 1 hr at room temperature. The plate is washed and incubated with the secondary reagent for 1 hr at room temperature. The plate is washed and developed with TMB substrate. Protein A/L-HRP or India-HRP was used as a secondary reagent.

binding: binds
B1: dAb3 monomer (other)
VL: DIQMTQSPSSLSASVGDRVTITCRASQSVKEFLWWYQQKPGKAPKLLIYMASNLQSGVPSRFSGSGSGTDFTLTISSLQPEDFATYYCQQKFKLPRTFGQGTKVEIKR
notes: Vκ dAb monomer; also called partner dAb in TAR1-5d4
